Measurements from article PMC12040169 (PLOS Biology, 2025).
Read-outs that look alike come from different tables or passages of the source. Some of the results follow.

Test system: T1, CTL2-GFP (C. trachomatis L2/434/Bu, GFP-expressing)
T1 construct: L2/434/Bu, GFP-expressing
Parameters: species or system HeLa; Intracellular C. trachomatis growth in HeLa cells, bulk GFP fluorescence relative to DMSO
Settings: bulk GFP, single well, 28.5 h, 10 µM, inhibitor

## COc1ccc(N(CC(=O)NC2CC3CCC2C3)S(=O)(=O)c2ccc(C)cc2)cc1 (stereo not shown) [CBK266574]
  % of control remaining: 115.623%

## CCn1cc(C(=O)N2CCN(Cc3ccco3)C[C@@H]2C(C)C)cn1 [CBK284307]
  % of control remaining: 115.696%

## COC(=O)c1c(NC(=S)NCc2ccccn2)sc2c1CCC2 [CBK267090]
  % of control remaining: 120.311%

## CCOC(=O)CSC1=NNC(C)(c2c(O)c3ccccc3n(CC)c2=O)N1 (stereo not shown) [CBK009370]
  % of control remaining: 118.596%

## CC(=O)Nc1ccc(N2C(=O)CSC23C(=O)Nc2ccccc23)cc1 (stereo not shown) [CBK095916]
  % of control remaining: 110.308%

## Cn1ncc(N2CCC(CNC(=O)COc3cccc(F)c3)C2)cc1=O (stereo not shown) [CBK307692]
  % of control remaining: 103.14%

## CC(=O)c1cccc(NC(=O)Cn2nc(N3CCSCC3)ccc2=O)c1 [CBK307625]
  % of control remaining: 153.13%

## CCCCC(c1cccnc1)N(C)C(=O)c1ccnc(-n2cnnc2)c1 (stereo not shown) [CBK306786]
  % of control remaining: 144.651%

## Cc1cccc(NC(=O)c2ccccc2NS(=O)(=O)c2ccc(F)c(F)c2)c1 [CBK113810]
  % of control remaining: 114.607%

## O=C(Nc1ccccc1N1CCN(C(=O)c2ccccc2)CC1)c1cccnc1 [CBK269948]
  % of control remaining: 91.8164%

## Cc1ccccc1CNC(=O)CCSc1ccc(Cl)cc1 [CBK264040]
  % of control remaining: 126.472%

## COCCn1c(=O)n(CC=C(C)C)c2cccnc21 [CBK283534]
  % of control remaining: 109.039%

## COc1ccc(Cl)cc1N(CC(=O)Nc1ccccc1C(=O)O)S(C)(=O)=O [CBK264137]
  % of control remaining: 100%

## CC1=CC(C)C(C(=O)O)C(C(=O)N2CCN(C)CC2)C1 (stereo not shown) [CBK027311G]
Bulk GFP fluorescence
  % of control remaining: 108.99%

## CCOC(=O)c1[nH]c2ccccc2c1NC(=O)c1ccc(Cl)cc1Br [CBK160140]
  % of control remaining: 121.121%

## Cn1cncc1CN(CCc1ccccc1)Cc1ccncc1 [CBK282992]
  % of control remaining: 116.352%

## CCOC(=O)c1sc(-c2cccc(C)n2)nc1O [CBK081083]
  % of control remaining: 115.926%

## COc1ccccc1NC(=O)C1CN(S(=O)(=O)c2ccccc2)CCN1S(=O)(=O)c1ccccc1 (stereo not shown) [CBK262673]
  % of control remaining: 112.017%

## O=C(c1nc2ccccn2c1CN1CCCC(O)C1)N1CCOCC1 (stereo not shown) [CBK307237]
  % of control remaining: 99.7585%

## c1ccc(CCN2CCN(CC3COc4ccccc4O3)CC2)cc1 (stereo not shown) [CBK138342]
  % of control remaining: 116.678%

## CCCCn1c(SCC(=O)c2cc(C)n(CCc3ccc(OC)cc3)c2C)n[nH]c1=O [CBK295351]
  % of control remaining: 132.309%

## CCC(NS(=O)(=O)c1ccc(OC)cc1)C(=O)O (stereo not shown) [CBK264509]
  % of control remaining: 127.104%
